Results are given in words; binding and its absence hold for the method and conditions named. Some binding calls cover weakened binding; strength is not graded here. Sequences can lack the tags named with a protein. Each block holds one molecule with its values, some of them ahead of it.
Columns and labels:
Test in all cases: co-purification of co-expressed proteins (Ni-NTA, anti-Flag affinity, gel filtration); co-expression in E. coli; extract on nickel-NTA agarose (TetR-(His)7), eluate on anti-Flag M2 gel eluted with 3x Flag peptide, then two S200GL 10/300 columns in series; complexes homogeneous and monodisperse
[1] = molecular target: TetR-Sth1(301-1097)-Flag H687A, as in the SAR complex (S. cerevisiae) (UniProt P32597)
[2] = molecular target: TetR-Sth1(301-1097)-Flag R684A, as in the SAR complex (S. cerevisiae) (UniProt P32597)
[3] = molecular target: TetR-Sth1(301-1097)-Flag Q954A, as in the SAR complex (S. cerevisiae) (UniProt P32597)
[4] = molecular target: TetR-Sth1(301-1097)-Flag F945A, as in the SAR complex (S. cerevisiae) (UniProt P32597)
[5] = molecular target: TetR-Sth1(301-1097)-Flag, wild type, as in the SAR complex (S. cerevisiae) (UniProt P32597)

Protein sequences, listed by entry. Tags and fused reporters are not part of them. Lines headed by an entry give the natural chain unless they say otherwise; changes in a name come on top. Chains listed by the source or under a name are the forms on record and can include a tag or linker. Residues count along the entry.
TetR-Sth1(301-1097)-Flag, wild type, as in the SAR complex (P32597, residues 301-1097): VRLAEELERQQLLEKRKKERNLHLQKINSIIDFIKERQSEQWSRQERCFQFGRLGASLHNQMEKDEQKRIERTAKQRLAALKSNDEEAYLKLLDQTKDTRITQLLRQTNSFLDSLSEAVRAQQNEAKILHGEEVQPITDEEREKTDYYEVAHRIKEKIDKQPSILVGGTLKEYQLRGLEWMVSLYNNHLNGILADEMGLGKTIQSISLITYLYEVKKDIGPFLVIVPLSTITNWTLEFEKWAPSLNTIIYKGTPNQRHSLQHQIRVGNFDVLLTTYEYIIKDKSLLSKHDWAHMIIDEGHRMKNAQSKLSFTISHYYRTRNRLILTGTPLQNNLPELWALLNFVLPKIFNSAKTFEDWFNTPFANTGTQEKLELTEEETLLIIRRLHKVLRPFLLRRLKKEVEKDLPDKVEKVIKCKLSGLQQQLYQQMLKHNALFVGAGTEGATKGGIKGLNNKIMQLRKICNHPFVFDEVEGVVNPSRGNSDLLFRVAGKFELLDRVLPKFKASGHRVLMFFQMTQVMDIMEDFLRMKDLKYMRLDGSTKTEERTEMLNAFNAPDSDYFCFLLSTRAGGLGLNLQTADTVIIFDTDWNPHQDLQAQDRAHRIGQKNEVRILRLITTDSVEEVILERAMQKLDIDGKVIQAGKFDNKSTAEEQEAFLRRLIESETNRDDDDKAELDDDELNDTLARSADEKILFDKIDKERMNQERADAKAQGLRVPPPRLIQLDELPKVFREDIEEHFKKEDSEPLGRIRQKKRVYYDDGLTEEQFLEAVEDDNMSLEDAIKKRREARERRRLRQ
TetR-Sth1(301-1097)-Flag H687A, as in the SAR complex (P32597, form named): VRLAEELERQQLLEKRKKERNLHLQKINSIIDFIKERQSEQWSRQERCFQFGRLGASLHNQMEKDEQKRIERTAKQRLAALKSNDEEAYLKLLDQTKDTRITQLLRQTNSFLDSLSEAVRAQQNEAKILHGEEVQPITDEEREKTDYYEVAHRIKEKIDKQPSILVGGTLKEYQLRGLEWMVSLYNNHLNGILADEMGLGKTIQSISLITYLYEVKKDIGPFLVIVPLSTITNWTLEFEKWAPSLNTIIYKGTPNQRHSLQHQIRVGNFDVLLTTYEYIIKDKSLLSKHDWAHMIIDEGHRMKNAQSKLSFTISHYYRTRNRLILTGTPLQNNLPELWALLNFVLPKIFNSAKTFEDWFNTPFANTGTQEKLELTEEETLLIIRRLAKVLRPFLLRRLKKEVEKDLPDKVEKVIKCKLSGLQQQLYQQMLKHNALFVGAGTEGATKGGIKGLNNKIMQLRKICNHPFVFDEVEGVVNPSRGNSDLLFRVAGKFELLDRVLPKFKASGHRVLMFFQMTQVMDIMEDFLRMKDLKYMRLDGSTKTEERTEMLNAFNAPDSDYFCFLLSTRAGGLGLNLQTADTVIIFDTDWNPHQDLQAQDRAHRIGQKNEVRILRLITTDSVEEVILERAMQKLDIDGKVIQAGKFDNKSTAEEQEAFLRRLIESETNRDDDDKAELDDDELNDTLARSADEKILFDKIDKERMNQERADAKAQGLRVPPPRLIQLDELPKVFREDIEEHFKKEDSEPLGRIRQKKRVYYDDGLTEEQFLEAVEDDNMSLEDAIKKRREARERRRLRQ
TetR-Sth1(301-1097)-Flag R684A, as in the SAR complex (P32597, form named): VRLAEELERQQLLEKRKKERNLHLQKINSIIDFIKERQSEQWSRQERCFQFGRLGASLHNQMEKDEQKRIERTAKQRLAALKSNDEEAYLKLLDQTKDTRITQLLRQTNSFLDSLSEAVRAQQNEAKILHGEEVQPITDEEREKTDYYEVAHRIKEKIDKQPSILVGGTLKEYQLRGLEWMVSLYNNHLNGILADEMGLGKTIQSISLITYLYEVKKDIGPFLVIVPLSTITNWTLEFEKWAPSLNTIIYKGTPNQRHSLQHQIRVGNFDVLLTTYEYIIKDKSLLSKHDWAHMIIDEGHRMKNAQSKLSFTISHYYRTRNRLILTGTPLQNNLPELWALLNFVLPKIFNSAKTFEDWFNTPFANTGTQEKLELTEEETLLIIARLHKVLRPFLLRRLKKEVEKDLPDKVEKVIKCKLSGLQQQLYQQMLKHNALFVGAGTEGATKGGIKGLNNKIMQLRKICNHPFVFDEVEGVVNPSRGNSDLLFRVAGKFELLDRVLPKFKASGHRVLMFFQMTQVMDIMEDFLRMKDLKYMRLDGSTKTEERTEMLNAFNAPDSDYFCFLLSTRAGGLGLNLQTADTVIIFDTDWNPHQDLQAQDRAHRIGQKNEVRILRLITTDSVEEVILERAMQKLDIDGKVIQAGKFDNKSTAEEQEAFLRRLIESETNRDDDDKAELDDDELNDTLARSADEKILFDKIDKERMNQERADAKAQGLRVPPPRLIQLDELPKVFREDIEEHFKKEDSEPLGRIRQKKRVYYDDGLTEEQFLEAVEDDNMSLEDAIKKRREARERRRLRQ
TetR-Sth1(301-1097)-Flag Q954A, as in the SAR complex (P32597, form named): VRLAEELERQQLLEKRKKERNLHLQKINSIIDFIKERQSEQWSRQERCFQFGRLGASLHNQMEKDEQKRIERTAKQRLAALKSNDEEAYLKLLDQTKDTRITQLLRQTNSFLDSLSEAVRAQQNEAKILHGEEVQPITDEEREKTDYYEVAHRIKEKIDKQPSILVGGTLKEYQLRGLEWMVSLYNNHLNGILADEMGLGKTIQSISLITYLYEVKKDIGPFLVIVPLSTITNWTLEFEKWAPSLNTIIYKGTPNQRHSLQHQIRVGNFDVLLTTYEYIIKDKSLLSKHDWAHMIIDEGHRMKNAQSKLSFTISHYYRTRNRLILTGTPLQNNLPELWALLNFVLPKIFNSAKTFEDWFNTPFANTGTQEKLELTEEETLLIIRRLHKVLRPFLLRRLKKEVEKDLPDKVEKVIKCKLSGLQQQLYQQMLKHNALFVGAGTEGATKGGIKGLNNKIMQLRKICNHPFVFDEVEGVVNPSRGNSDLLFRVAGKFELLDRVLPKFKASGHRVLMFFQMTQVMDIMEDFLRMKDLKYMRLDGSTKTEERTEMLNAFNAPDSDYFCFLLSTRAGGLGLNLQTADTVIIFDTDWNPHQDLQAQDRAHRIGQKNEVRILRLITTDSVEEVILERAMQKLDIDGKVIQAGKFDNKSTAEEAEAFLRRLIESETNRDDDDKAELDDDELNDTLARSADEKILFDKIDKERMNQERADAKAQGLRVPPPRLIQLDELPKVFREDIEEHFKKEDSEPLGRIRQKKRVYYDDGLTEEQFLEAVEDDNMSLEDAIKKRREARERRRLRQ
TetR-Sth1(301-1097)-Flag F945A, as in the SAR complex (P32597, form named): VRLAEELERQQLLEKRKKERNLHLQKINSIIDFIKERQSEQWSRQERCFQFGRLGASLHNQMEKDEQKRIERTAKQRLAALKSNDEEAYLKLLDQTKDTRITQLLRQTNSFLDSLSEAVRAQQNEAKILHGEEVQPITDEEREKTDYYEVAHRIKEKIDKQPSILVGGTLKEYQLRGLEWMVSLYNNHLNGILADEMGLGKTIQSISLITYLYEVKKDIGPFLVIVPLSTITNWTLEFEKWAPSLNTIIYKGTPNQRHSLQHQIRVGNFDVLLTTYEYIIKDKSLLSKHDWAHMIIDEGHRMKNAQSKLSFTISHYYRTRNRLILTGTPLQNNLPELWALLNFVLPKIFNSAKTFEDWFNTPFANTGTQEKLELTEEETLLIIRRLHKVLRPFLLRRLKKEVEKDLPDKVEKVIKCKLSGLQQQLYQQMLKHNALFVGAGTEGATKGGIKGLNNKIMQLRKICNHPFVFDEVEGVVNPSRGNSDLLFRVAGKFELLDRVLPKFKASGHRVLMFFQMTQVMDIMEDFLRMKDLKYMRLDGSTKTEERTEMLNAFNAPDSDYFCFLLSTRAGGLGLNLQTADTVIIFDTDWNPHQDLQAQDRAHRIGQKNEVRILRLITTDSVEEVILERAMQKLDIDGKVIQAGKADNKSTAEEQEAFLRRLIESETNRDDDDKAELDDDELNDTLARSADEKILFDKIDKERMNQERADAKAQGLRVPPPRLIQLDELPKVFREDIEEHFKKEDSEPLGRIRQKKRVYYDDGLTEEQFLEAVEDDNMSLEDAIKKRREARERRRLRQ
UniProt Q12406: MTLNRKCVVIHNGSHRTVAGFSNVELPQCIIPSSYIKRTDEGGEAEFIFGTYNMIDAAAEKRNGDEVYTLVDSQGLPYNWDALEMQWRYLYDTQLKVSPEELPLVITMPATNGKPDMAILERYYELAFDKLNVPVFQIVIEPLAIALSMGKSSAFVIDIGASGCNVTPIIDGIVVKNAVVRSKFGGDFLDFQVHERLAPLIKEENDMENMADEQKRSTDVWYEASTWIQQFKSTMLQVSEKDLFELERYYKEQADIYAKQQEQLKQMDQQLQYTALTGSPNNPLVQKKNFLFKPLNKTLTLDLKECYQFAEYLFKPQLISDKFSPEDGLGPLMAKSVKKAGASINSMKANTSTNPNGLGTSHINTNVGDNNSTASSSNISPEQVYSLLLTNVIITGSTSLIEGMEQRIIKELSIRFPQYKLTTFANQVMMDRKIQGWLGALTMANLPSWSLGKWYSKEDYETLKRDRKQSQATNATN
UniProt Q05123: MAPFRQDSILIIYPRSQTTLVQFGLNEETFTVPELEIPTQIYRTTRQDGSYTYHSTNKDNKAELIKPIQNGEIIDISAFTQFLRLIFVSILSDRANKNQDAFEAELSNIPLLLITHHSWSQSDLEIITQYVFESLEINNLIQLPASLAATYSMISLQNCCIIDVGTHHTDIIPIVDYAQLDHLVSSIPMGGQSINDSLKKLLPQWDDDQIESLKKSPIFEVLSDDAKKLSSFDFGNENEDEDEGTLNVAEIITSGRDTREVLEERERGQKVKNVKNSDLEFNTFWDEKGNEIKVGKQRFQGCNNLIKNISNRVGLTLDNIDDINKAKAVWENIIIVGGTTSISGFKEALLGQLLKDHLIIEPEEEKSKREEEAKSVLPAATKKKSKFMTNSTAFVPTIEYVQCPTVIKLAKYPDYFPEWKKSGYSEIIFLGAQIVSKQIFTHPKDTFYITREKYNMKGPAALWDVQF

- binding [1]: binds
- binding [2]: binds
- binding [3]: binds
- binding [4]: binds
- binding [5]: binds
Molecule: Arp7 (from UniProt Q12406 1-477)

- binding [1]: binds
- binding [2]: binds
- binding [3]: binds
- binding [4]: binds
- binding [5]: binds
Molecule: Arp9 (from UniProt Q05123 1-467)

- binding [1]: binds
- binding [2]: binds
- binding [3]: binds
- binding [4]: binds
- binding [5]: binds
B1: Rtt102-S-tag (protein, UniProt P53330 1-157)
chain: MDPQTLITKANKVSYYGNPTSKESWRYDWYQPSKVSSNVQQPQQQLGDMENNLEKYPFRYKTWLRNQEDEKNLQRESCEDILDLKEFDRRILKKSLMTSHTKGDTSKATGAPSANQGDEALSVDDIRGAVGNSEAIPGLSAGVNNDNTKESKDVKMN

From paper PMC7853424
